The other results are listed elsewhere or left out. Values are raw readings; no control value is given beside them.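 Primary screen: polymyxin B was added at a level permeabilizing Salmonella outer membranes while sparing inner membranes. DMSO wells, both with and without polymyxin B, established maximum growth. Plate-to-plate variation meant each plate was ranked on its own, and the lowest-OD600 compounds were selected as hits.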
System: Salmonella enterica serovar Typhimurium SL1344
Assay: bacterial growth OD600 after 18 h with compound and polymyxin B; higher = more bacterial growth (less inhibition)
Conditions: 50 µM, Mueller-Hinton broth

SMILES | bacterial growth OD600 (polymyxin B 0.75 µg/mL) | bacterial growth OD600 (polymyxin B 1 µg/mL)
C=CCNC(=O)N1CCC(N2CCCC(C(=O)NC3CC3)C2)CC1 (stereo not given) | 0.862 | –
CCOC(=O)C1(C/C=C/c2ccccc2)CCCN(C(=O)c2cc(C)n(C)n2)C1 (stereo not given) | 0.44 | –
COC(=O)c1ccc(CNC(=O)C2CCCN(c3nc(C)c4ccc(S(C)(=O)=O)cc4n3)C2)cc1 (stereo not given) | 0.87 | –
O=C(NC1CC(=O)N(C2CCCCCC2)C1)c1csnn1 (stereo not given) | – | 0.939
COc1ccc(CN2CCc3[nH]ncc3C2)cc1OCC(O)CN1CCCCCCC1 (stereo not given) | 0.863 | –
CCS(=O)(=O)c1ncc(CN2CCCCC2CCOC)n1Cc1ccccc1 (stereo not given) | – | 0.965
CO[C@H]1[C@H](NC(=O)c2ccsc2)c2ccccc2C12CCN(Cc1c(F)ccc(F)c1F)CC2 | 0.409 | –
Cc1nn(C)c(C)c1CCC(=O)N1CCc2[nH]nc(-c3ccccc3F)c2C1 | 0.718 | –
COc1ccc(-n2ncc(C(C)NCc3ccc(Cl)c(F)c3)c2C)cc1 (stereo not given) | 0.76 | –
COCc1ccc(CN2CCCC(CCC(=O)Nc3ccc(OC)cc3C)C2)o1 (stereo not given) | – | 1.14
CCC1CCCCN1C(=O)c1cn(CCOC)cc(C(=O)NCC2(c3ccccc3)CCCC2)c1=O (stereo not given) | 0.01 | –
COc1ccc(CN2C(=O)O[C@@H]3CN(C(=O)NC(C)C)C[C@@H]32)cc1OC | 0.832 | –
Cc1ccccc1CCC1CCCN(C(=O)CCc2cnn(C)c2)C1 (stereo not given) | 0.624 | –
O=C(CCC1CCCN(C(=O)c2ccc(Oc3ccccc3)o2)C1)NC1CC1 (stereo not given) | – | 0.945
CN(Cc1nc(CCc2ccccc2)no1)CC(O)c1ccccc1 (stereo not given) | – | 0.893
Cc1ncc2c(c1CNC(=O)Cc1ccsc1)CCN(C(=O)c1cccc(N3CCCC3=O)c1)C2 | 0.754 | –
O=C(C1CCCC1)N1CCCC(N2CCN(c3ccccc3F)CC2)C1 (stereo not given) | – | 0.836
Cn1nccc1C(=O)NCC1Cc2cc(-c3cccc(OC(F)(F)F)c3)ccc2O1 (stereo not given) | 0.008 | –
COC1CCCN(C(=O)c2cc(Cn3c(C)nc4ccccc43)[nH]n2)C1 (stereo not given) | – | 0.917
CC(=O)c1cccc(NC(=O)NC2CCCN(C3CCCCCC3)C2)c1 (stereo not given) | – | 0.93
CCN(CCO)c1ccc(-c2nc(Cc3ccc(Cl)cc3)no2)cn1 | – | 0.007
Cc1nc(N2CCC(C(=O)N[C@@H](C)c3ccccc3)CC2)nc2cc(S(C)(=O)=O)ccc12 | 0.91 | –
Cc1cnc(C(=O)N2CCCC(C(=O)c3ccc(Oc4ccccc4)cc3)C2)cn1 (stereo not given) | – | 0.553
O=C(CCc1ccccc1)Nc1ccnn1C1CCN(Cc2nccs2)CC1 | – | 0.901
CCCc1cc(CN(C)C(=O)CC2(c3ccccc3Cl)CC(=O)N(CCCOC)C2=O)n[nH]1 (stereo not given) | 0.718 | –
CCNC(=O)c1cn(CC(C)C)cc(C(=O)NCc2ccc(OC)cc2)c1=O | 0.751 | –
COc1ccc2c(c1)OC(C)CN(C(=O)/C(F)=C/c1ccccc1)C2 (stereo not given) | 0.002 | –
Cc1ccccc1CC(C1CCN(C(=O)c2ccc3ncccc3c2)CC1)N(C)C(=O)Cn1cccn1 (stereo not given) | 0.805 | –
COc1ccc(CCC(=O)N2CCCC(c3nc(C)ncc3-c3cccc(C)c3)C2)cc1OC (stereo not given) | 1.04 | –
COc1cc(OC)c(CN2CCC(CO)(CCOc3ccccc3)CC2)c(OC)c1 | – | 0.817

Part of the list above in another layout.
O=C(CCc1ccccc1)Nc1ccnn1C1CCN(Cc2nccs2)CC1
  bacterial growth OD600 (polymyxin B 1 µg/mL): 0.901
CCCc1cc(CN(C)C(=O)CC2(c3ccccc3Cl)CC(=O)N(CCCOC)C2=O)n[nH]1 (stereo not given)
  bacterial growth OD600 (polymyxin B 0.75 µg/mL): 0.718
